Laboratory results: PubChem BioAssay AID1671195 (Yale University, 2021)
Shown is one part, drawn at random, of about 22,000 reagents tested. In the full data, about 1,510 (6.9%) got an active call. 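Active includes knockdowns raising or lowering LDL uptake; positive z-scores mean more uptake, negative mean less.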 Reagents against one gene are numbered here.

Purpose: 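Genes whose knockdown alters LDL uptake in liver cancer cells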 (primary screen)
Cell system: human Huh7 hepatoma cells
Reagents: siRNA pool against human genes, 18 nM
Timing: about 2 to 2.5 days of knockdown, then 8 h LDL uptake
Treatment: DiI-labelled LDL at 30 µg/ml for 8 h, in lipoprotein-deficient serum medium
Read-out: 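Per-cell DiI-LDL intensity by automated imaging; well means scaled to the plate median and given as a robust z-score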
Scale: robust z-score: higher = more LDL uptake after knockdown
Rule for the call: 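Active when two or more replicates show a robust z-score above 2 or below -2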

gene,reagent,"robust z-score, replicate 1","robust z-score, replicate 2","robust z-score, replicate 3",Call
CRBN (cereblon),1,0.578,1.67,0.907,inactive
XPNPEP2 (X-prolyl aminopeptidase 2),1,-1.06,-1.29,-1.22,inactive
YWHAEP5,1,-0.0517,0.483,0.274,inactive
SMTNL1 (smoothelin like 1),1,0.779,-0.00869,0.0779,inactive
PODXL (podocalyxin like),1,-1.21,0.903,-1.27,inactive
ZNF536 (zinc finger protein 536),1,-0.436,-0.363,-0.562,inactive
VSIG4 (V-set and immunoglobulin domain containing 4),1,-0.0224,-0.528,0.169,inactive
MYOT (myotilin),1,1.61,-0.337,0.00305,inactive
LOC283299,1,0.0301,-0.036,0.222,inactive
LOC442503 (retired record),1,-1.26,-1.34,-4.97,inactive
PLEKHJ1 (pleckstrin homology domain containing J1),1,-0.351,0.449,-0.426,inactive
PMS2P2,1,-0.487,-0.969,0.0784,inactive
GBP2 (guanylate binding protein 2),1,-0.651,-0.849,0.0199,inactive
NEDD9,1,-0.249,-0.211,0.641,inactive
UBXN8 (UBX domain protein 8),1,-0.797,-1.15,-0.865,inactive
RPS23P2 (ribosomal protein S23 pseudogene 2),1,0.642,-0.416,-0.376,inactive
GAS2L1 (growth arrest specific 2 like 1),1,0.365,-0.805,1.48,inactive
NOC3L (NOC3 like DNA replication regulator),1,0.68,0.667,1.2,inactive
TSNAX (translin associated factor X),1,-0.698,-1.14,-0.768,inactive
ZNF460 (zinc finger protein 460),1,0.577,0.868,0.793,inactive
ZBTB40 (zinc finger and BTB domain containing 40),1,1.59,1.31,1.31,inactive
CARD11 (caspase recruitment domain family member 11),1,2.05,2.3,1.57,active
OR1E1 (olfactory receptor family 1 subfamily E member 1),1,0.148,1.05,-0.112,inactive
MXRA5 (matrix remodeling associated 5),1,2.27,3.28,1.08,active
VILL (villin like),1,0.298,-0.988,1.61,inactive
KIF5C (kinesin family member 5C),1,0.933,0.228,0.0321,inactive
SCAMP2,1,-0.946,-1.6,-1.93,inactive
ESX1 (ESX homeobox 1),1,0.293,0.592,0.265,inactive
DCUN1D5 (defective in cullin neddylation 1 domain containing 5),1,-1.18,-0.853,-0.148,inactive
TNS1 (tensin 1),1,-0.832,-0.123,-0.305,inactive
HPD (4-hydroxyphenylpyruvate dioxygenase),1,-0.463,-0.556,-0.055,inactive
HSD17B1 (hydroxysteroid 17-beta dehydrogenase 1),1,-0.739,-1.35,-0.908,inactive
BCO2 (beta-carotene oxygenase 2),1,-1.33,-1.42,-1.24,inactive
CWC22 (CWC22 spliceosome associated protein),1,1.09,0.624,-0.72,inactive
LRRN1 (leucine rich repeat neuronal 1),1,0.39,-0.0126,-0.0813,inactive
LINC03033 (long independently transcribed non-coding RNA 3033),1,0.58,0.833,0.548,inactive
LINC03033 (long independently transcribed non-coding RNA 3033),2,-1.02,-0.481,-0.536,inactive
CCZ1P-OR7E38P (CCZ1P-OR7E38P readthrough),1,0.235,0.319,0.0808,inactive
C11orf87 (chromosome 11 open reading frame 87),1,-1.51,-0.978,-1.65,inactive
TIMM29 (translocase of inner mitochondrial membrane 29),1,-0.75,-1,-1.23,inactive
MTIF3 (mitochondrial translational initiation factor 3),1,1.05,1.02,1.44,inactive
PMEL (premelanosome protein),1,-2.38,-0.925,-0.0822,inactive
PMS2P3,1,-0.219,0.311,0.207,inactive
OR13C8 (olfactory receptor family 13 subfamily C member 8),1,0.565,-0.457,0.435,inactive
BEST2 (bestrophin 2),1,0.37,0.0987,0.825,inactive
CST9 (cystatin 9),1,2.06,1.36,2.09,active

Hits, among the entries above:
gene,reagent,"robust z-score, replicate 1","robust z-score, replicate 2","robust z-score, replicate 3",Call
CARD11 (caspase recruitment domain family member 11),1,2.05,2.3,1.57,active
MXRA5 (matrix remodeling associated 5),1,2.27,3.28,1.08,active
CST9 (cystatin 9),1,2.06,1.36,2.09,active
